Results: PMC12718634
These are yes or no findings as the source states them, for the method shown. In cells and extracts the contact can be indirect. Sequences can lack the tags named with a protein.

Molecular target: T1, CYRI-B-p17-GFP (UniProt Q921M7)
T1 sequence: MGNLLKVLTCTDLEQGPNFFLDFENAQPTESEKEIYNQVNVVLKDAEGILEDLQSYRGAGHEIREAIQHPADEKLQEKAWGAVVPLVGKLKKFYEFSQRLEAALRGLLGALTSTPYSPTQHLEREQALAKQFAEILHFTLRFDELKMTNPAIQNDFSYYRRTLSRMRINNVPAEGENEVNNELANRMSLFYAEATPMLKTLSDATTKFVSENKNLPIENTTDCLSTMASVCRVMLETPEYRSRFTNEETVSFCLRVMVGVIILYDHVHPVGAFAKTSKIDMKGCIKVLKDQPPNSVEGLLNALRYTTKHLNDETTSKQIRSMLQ
Experiment: co-IP; GFP-Trap: lysate (1.5 mg protein) of B16-F1 cells transiently expressing GFP or CYRI-B-p17-GFP on GFP-Trap_A beads, 2 h at 4°C; 25 mM Tris-HCl pH 7.5, 100 mM NaCl, 5 mM MgCl2, 0.5% NP-40; blot probed with anti-ERC1 for endogenous ERC1

B1: ERC1 (protein, UniProt Q99MI1 1-1120)
chain: MYGSARSVGKVEPSSQSPGRSPRLPRSPRLGHRRTNSTGGSSGNSVGGGSGKTLSMENIQSLNAAYATSGPMYLSDHENVGAETPKSTMTLGRSGGRLPYGVRMTAMGSSPNIASSGVASDTIAFGEHHLPPVSMASTVPHSLRQARDNTIMDLQTQLKEVLRENDLLRKDVEVKESKLSSSMNSIKTFWSPELKKERALRKDEASKITIWKEQYRVVQEENQHMQMTIQALQDELRIQRDLNQLFQQDSSSRTGEPCVAELTEENFQRLHAEHERQAKELFLLRKTLEEMELRIETQKQTLNARDESIKKLLEMLQSKGLSAKATEEDHERTRRLAEAEMHVHHLESLLEQKEKENNMLREEMHRRFENAPDSAKTKALQTVIEMKDSKISSMERGLRDLEEEIQMLKSNGALSSEEREEEMKQMEVYRSHSKFMKNKVEQLKEELSSKDAQGEELKKRAAGLQSEIGQVKQELSRKDTELLALQTKLETLTNQFSDSKQHIEVLKESLTAKEQRAAILQTEVDALRLRLEEKETMLNKKTKQIQDMAEEKGTQAGEIHDLKDMLDVKERKVNVLQKKIENLQEQLRDKEKQMSSLKERVKSLQADTTNTDTALTTLEEALADKERTIERLKEQRDRDEREKQEEIDTYKKDLKDLREKVSLLQGDLSEKEASLLDIKEHASSLASSGLKKDSRLKTLEIALEQKKEECLKMESQLKKAHEATLEARASPEMSDRIQQLEREISRYKDESSKAQTEVDRLLEILKEVENEKNDKDKKIAELESLTSRQVKDQNKKVANLKHKEQVEKKKSAQMLEEARRREDSLSDSSQQLQDSLRKKDDRIEELEEALRESVQITAEREMVLAQEESARTNAEKQVEELLMAMEKVKQELESMKAKLSSTQQSLAEKETHLTNLRAERRKHLEEVLEMKQEALLAAISEKDANIALLELSSSKKKTQEEVAALKREKDRLVQQLKQQTQNRMKLMADNYEDDHFRSSRSNQTNHKPSPDQIIQPLLELDQNRSKLKLYIGHLTALCHDRDPLILRGLTPPASYNADGEQAAWENELQQMTQEQLQNELEKVEGDNAELQEFANTILQQIADHCPDILEQVVNALEESS
  binding: no binding
